Measured values: the M2OR odorant receptor database
The list shows a part of the results, in another mix than the full data. The calls were merged from several studies; some rest on single wells. The list shows a part of the results.

Sequences of proteins named here, by UniProt entry; tags and fusion partners are left off. A line that says so, or that is headed by a name, gives the form on record, which may keep a tag or linker.
UniProt E9PVX1, as listed by the source: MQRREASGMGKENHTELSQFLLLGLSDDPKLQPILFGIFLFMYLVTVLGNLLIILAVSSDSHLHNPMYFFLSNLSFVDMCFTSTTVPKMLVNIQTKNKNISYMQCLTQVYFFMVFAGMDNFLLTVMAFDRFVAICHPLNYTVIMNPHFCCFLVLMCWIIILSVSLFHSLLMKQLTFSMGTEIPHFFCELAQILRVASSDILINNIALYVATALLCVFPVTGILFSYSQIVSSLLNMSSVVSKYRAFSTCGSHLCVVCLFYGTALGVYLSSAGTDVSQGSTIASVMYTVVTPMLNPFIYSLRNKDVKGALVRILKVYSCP
UniProt E9PZ66, as listed by the source: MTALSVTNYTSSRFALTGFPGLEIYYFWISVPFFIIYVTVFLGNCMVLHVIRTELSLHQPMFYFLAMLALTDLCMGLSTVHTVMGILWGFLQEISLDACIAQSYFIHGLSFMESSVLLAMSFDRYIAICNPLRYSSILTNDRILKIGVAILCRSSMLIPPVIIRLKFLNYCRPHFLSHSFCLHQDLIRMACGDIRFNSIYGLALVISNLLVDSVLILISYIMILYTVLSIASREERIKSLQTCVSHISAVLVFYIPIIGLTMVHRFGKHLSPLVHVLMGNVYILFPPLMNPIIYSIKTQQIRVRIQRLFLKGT
UniProt E9Q4X7, as listed by the source: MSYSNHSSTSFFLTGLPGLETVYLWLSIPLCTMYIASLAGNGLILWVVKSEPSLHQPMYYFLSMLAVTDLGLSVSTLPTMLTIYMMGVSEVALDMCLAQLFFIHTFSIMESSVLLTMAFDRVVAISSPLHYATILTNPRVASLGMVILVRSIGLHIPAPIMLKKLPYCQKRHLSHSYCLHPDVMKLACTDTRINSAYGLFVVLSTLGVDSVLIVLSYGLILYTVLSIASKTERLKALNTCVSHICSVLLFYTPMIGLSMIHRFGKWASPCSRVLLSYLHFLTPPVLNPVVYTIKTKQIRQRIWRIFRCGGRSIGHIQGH
UniProt E9Q546, as listed by the source: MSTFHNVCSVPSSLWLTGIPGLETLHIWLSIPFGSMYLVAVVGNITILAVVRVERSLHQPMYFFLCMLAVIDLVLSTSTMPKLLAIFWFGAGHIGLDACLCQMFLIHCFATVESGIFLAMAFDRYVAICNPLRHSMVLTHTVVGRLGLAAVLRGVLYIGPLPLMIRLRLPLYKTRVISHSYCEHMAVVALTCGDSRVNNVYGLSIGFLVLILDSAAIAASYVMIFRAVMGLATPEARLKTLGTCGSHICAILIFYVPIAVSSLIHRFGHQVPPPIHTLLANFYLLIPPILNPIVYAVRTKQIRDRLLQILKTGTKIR
UniProt E9Q6Z7, as listed by the source: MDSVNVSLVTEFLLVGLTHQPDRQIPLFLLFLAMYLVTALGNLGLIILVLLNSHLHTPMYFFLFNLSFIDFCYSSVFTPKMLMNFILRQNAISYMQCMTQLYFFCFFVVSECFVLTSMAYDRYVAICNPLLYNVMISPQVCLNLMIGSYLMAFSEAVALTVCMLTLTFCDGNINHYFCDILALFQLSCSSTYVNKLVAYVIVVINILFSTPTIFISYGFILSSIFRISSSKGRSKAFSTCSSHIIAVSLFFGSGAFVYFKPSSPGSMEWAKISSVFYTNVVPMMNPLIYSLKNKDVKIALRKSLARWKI
UniProt L7MU75, as listed by the source: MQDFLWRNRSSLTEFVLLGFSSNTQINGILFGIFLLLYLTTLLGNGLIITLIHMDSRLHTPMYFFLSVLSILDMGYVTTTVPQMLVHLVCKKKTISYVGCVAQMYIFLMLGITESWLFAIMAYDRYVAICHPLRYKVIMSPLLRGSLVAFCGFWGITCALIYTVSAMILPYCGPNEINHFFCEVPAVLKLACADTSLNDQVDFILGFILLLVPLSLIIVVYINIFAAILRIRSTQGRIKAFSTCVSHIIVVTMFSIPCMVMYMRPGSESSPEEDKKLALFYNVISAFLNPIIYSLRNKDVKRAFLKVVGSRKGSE
UniProt L7N210, as listed by the source: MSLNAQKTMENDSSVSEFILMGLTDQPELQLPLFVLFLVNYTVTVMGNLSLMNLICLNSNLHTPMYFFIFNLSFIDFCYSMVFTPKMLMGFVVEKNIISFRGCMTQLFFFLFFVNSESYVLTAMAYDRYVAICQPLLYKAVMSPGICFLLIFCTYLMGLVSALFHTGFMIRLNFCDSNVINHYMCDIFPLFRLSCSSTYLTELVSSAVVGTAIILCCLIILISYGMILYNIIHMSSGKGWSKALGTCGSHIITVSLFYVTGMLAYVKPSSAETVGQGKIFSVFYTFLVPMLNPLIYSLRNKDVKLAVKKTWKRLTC
UniProt Q3KPB0, as listed by the source: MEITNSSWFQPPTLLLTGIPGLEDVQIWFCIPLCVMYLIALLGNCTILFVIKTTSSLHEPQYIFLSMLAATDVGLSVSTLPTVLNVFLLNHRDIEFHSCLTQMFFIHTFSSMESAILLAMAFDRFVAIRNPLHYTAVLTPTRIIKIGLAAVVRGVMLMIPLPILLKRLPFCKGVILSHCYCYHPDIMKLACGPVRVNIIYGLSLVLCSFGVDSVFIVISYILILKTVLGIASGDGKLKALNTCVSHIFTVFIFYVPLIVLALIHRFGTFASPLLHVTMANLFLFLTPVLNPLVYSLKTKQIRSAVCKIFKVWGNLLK
UniProt Q3U0P3, as listed by the source: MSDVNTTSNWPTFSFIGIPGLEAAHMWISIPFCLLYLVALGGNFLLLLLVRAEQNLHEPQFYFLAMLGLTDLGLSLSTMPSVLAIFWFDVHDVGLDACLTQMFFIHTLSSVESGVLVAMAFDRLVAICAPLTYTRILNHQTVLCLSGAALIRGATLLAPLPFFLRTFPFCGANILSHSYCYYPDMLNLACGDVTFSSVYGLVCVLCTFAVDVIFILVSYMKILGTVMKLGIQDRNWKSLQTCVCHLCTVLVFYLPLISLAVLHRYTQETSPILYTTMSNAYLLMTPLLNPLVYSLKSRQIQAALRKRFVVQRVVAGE
UniProt Q7TQU8, as listed by the source: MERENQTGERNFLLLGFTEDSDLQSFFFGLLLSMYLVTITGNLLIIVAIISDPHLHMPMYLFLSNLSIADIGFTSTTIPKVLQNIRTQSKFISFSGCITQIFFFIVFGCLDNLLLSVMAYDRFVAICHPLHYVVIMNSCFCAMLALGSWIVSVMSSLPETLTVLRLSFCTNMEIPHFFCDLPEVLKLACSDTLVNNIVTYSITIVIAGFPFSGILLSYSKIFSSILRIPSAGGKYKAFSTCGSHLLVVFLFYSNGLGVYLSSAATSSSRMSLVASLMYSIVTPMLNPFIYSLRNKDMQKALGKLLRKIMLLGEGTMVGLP
UniProt Q7TR79, as listed by the source: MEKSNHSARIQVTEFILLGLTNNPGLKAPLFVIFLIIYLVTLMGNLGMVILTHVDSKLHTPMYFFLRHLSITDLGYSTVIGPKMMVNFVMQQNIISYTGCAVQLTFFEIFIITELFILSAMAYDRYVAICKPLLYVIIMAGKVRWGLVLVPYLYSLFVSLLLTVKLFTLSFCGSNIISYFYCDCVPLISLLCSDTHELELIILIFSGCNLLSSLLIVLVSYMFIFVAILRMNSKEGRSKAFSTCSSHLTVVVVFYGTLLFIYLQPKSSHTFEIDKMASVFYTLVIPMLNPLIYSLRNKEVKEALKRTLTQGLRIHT
UniProt Q7TRX0, as listed by the source: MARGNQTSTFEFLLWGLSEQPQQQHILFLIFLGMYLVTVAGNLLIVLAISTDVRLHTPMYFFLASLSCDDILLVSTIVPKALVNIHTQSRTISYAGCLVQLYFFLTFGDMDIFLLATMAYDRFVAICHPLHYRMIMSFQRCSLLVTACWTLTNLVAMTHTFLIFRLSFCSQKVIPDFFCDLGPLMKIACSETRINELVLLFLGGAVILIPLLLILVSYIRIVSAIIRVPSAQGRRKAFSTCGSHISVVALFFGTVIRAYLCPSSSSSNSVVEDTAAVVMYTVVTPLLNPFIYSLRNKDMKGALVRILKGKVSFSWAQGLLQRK
UniProt Q8VF43, as listed by the source: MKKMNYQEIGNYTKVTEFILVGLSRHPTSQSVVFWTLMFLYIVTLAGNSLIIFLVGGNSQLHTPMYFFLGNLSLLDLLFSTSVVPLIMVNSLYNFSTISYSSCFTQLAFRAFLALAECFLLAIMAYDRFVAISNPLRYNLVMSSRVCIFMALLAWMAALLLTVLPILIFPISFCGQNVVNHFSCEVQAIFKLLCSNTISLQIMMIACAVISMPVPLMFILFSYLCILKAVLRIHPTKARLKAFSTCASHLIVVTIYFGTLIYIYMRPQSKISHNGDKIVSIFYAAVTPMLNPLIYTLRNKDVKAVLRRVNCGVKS
UniProt Q8VF52, as listed by the source: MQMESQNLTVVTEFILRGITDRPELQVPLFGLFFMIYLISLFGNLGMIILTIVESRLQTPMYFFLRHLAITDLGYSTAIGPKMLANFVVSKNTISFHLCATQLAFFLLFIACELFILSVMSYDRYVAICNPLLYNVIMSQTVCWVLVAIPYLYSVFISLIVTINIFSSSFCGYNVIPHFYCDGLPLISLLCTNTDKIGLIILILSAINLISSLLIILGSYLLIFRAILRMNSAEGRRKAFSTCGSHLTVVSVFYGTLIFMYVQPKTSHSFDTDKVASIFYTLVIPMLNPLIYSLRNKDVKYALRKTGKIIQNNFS
UniProt Q8VFM8, as listed by the source: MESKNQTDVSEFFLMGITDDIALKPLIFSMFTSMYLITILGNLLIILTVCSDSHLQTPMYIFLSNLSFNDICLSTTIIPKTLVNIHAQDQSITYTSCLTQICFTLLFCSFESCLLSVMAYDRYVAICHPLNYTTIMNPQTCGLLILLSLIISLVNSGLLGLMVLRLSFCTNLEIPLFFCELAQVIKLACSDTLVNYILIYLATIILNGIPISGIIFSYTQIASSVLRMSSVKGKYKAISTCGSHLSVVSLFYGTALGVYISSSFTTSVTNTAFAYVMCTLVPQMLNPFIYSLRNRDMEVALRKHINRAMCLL
UniProt Q8VFP5, as listed by the source: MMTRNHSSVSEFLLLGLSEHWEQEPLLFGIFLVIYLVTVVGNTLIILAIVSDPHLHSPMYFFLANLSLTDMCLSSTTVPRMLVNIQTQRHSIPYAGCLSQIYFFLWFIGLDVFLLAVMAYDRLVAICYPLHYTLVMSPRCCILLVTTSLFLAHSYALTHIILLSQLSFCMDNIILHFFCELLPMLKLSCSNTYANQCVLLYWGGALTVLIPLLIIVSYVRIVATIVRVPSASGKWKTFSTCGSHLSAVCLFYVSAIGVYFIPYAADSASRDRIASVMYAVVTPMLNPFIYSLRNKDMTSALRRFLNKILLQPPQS
UniProt Q8VG01, as listed by the source: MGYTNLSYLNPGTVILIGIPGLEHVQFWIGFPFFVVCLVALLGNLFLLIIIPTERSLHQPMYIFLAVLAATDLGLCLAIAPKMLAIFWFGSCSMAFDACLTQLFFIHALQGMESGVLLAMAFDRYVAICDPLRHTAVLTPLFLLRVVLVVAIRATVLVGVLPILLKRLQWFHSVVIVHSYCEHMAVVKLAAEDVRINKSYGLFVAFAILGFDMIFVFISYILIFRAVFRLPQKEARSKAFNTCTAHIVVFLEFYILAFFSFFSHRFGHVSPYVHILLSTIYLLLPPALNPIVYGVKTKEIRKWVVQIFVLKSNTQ
UniProt Q8VG27, as listed by the source: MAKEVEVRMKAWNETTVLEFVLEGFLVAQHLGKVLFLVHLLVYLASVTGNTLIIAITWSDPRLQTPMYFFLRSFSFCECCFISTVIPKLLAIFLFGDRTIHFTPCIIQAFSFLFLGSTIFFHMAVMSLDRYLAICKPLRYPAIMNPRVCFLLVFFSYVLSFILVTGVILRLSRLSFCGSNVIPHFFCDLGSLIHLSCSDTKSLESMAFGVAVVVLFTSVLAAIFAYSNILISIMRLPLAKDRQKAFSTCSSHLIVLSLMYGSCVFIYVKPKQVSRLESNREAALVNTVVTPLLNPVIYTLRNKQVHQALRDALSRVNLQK
UniProt Q8VG53, as listed by the source: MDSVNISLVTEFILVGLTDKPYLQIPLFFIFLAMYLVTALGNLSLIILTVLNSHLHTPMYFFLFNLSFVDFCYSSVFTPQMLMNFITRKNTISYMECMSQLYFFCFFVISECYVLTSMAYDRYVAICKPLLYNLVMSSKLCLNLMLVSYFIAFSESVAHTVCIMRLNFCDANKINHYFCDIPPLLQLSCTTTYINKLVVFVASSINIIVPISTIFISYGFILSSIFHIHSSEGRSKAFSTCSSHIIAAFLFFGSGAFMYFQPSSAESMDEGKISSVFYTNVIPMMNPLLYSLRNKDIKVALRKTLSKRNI
UniProt Q8VG64, as listed by the source: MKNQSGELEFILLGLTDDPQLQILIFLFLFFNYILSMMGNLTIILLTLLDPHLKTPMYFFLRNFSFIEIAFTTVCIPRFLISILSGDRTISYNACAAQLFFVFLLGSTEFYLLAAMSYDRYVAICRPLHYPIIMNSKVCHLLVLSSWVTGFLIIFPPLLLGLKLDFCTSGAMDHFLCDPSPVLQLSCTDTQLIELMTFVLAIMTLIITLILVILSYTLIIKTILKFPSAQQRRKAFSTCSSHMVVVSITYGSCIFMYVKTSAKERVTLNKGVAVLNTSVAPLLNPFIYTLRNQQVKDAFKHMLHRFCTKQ

Key:
Details in all cases: stereoisomer not certain
UniProt E9PVX1 = target: UniProt E9PVX1
Method in brief: (§1)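 Values were gathered from published papers (main text and supplementary material), with extra details requested from the original authors when needed, and checked for typos and inconsistencies. Each receptor–molecule pair is called responsive (active) if the original authors judged the measured signal statistically different from baseline, and non-responsive (inactive) otherwise. Assay methods varied by source, often transient mammalian cell-line luciferase assays. Recorded details include cell line, G-protein, co-transfected protein and tags.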

UniProt E9PZ66 = target: UniProt E9PZ66
Method in brief: as §1

UniProt E9Q4X7 = target: UniProt E9Q4X7
Method in brief: as §1

UniProt E9Q546 = target: UniProt E9Q546
Method in brief: as §1

UniProt E9Q6Z7 = target: UniProt E9Q6Z7
Method in brief: as §1

UniProt L7MU75 = target: UniProt L7MU75
Method in brief: as §1

UniProt L7N210 = target: UniProt L7N210
Method in brief: as §1

UniProt Q3KPB0 = target: UniProt Q3KPB0
Method in brief: as §1

UniProt Q3U0P3 = target: UniProt Q3U0P3
Method in brief: as §1

UniProt Q7TQU8 = target: UniProt Q7TQU8
Method in brief: as §1

UniProt Q7TR79 = target: UniProt Q7TR79
Method in brief: as §1

UniProt Q7TRX0 = target: UniProt Q7TRX0
Method in brief: as §1

UniProt Q8VF43 = target: UniProt Q8VF43
Method in brief: as §1

UniProt Q8VF52 = target: UniProt Q8VF52
Method in brief: as §1

UniProt Q8VFM8 = target: UniProt Q8VFM8
Method in brief: as §1

UniProt Q8VFP5 = target: UniProt Q8VFP5
Method in brief: as §1

UniProt Q8VG01 = target: UniProt Q8VG01
Method in brief: as §1

UniProt Q8VG27 = target: UniProt Q8VG27
Method in brief: as §1

UniProt Q8VG53 = target: UniProt Q8VG53
Method in brief: as §1

UniProt Q8VG64 = target: UniProt Q8VG64
Method in brief: as §1

Measured: odorant receptor agonist call

CCC(C)=O
inactive: all assays above

CCOc1cc(C=O)ccc1O
inactive: all assays above
